Source: article PMC6555802

Sequences of proteins named here, by UniProt entry; tags and fusion partners are left off.
UniProt P20338: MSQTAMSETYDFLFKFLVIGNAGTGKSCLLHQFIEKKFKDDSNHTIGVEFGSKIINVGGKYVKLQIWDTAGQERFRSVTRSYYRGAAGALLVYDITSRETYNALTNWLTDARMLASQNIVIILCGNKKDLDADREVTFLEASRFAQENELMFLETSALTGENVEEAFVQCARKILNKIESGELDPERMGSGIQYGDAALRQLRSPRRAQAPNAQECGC
UniProt P61026: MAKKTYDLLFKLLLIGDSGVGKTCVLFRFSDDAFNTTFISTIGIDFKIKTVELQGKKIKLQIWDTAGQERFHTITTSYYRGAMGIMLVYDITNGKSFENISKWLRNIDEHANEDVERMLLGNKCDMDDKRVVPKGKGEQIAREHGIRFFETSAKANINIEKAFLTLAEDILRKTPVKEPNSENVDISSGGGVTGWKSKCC

Target: T1, 3xFlag-CHML (human) (UniProt P26374)
T1 sequence: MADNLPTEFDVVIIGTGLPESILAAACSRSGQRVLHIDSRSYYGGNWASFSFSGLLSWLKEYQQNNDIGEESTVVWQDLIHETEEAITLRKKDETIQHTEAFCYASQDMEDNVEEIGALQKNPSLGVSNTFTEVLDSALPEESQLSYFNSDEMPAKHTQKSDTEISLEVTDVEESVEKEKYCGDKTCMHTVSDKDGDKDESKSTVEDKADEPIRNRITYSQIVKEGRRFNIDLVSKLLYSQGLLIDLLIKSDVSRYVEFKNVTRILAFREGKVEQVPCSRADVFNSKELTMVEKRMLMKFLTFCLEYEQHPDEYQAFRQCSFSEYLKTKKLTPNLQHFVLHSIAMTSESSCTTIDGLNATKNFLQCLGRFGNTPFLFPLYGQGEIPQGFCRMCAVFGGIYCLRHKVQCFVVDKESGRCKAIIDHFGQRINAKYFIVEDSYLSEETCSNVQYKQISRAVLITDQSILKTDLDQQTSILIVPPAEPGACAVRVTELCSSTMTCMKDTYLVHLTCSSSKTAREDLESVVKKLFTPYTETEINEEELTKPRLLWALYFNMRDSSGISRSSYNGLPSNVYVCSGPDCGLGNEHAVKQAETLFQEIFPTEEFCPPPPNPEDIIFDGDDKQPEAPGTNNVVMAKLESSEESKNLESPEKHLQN
Experiment: affinity purification with mass spectrometry; 3xFlag-CHML overexpressed in 293T cells, immunoprecipitated with anti-Flag beads; silver-stained band just beneath 25KD analysed by tandem mass spectrum

Substance | binding
Rab4A (from UniProt P20338 1-218) | binds
Rab10 (from UniProt P61026 1-200) | binds

No constants are given. Whether binding was seen depends on the method and setting. In cells and extracts the contact can be indirect. Here binding means that the protein was enriched with, or labelled near, the bait; the list need not be complete. Where a sequence is shown, tags or fusion partners need not be part of it.
